This is an account of results in publication PMC5379764, “Polynucleotide phosphorylase is implicated in homologous recombination and DNA repair in Escherichia coli”.

What all share (experiment): EMSA
Holding throughout (details): 50 mM Tris-HCl pH 7.4, 50 mM NaCl, 0.5 mM DTT, 0.025% NP40, 10% glycerol, +/- 2 mM MgCl2 or MnCl2, 50 fmol probe in 10 µl, 20 min at 21 °C, native 5% PAGE at 4 °C, recombinant protein, protein details: His-tag, label: 5'-32P

Data set [1] concerns the target T1, PNPase ΔS1 del622-633 (Escherichia coli) (UniProt P05055).
T1 sequence (looked up, limits assumed): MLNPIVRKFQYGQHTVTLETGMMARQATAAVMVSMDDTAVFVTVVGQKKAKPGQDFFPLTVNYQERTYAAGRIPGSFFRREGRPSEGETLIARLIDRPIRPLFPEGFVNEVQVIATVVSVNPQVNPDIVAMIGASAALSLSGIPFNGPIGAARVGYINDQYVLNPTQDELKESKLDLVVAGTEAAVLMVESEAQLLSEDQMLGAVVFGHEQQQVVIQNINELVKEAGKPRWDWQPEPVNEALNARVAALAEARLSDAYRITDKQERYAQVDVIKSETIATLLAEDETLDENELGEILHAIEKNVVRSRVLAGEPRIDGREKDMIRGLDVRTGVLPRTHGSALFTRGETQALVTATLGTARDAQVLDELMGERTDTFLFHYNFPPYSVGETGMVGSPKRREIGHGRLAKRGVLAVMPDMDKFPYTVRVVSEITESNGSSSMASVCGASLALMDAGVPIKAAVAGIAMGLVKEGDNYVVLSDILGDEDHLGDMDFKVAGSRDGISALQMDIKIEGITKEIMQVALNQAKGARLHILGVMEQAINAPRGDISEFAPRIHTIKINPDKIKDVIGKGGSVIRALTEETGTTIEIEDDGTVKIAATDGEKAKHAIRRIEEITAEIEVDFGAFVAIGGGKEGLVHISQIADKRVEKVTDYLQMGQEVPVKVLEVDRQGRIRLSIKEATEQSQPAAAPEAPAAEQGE

The target of data set [2] is T2, PNPase wild type (Escherichia coli) (UniProt P05055).
T2 sequence (looked up, limits assumed): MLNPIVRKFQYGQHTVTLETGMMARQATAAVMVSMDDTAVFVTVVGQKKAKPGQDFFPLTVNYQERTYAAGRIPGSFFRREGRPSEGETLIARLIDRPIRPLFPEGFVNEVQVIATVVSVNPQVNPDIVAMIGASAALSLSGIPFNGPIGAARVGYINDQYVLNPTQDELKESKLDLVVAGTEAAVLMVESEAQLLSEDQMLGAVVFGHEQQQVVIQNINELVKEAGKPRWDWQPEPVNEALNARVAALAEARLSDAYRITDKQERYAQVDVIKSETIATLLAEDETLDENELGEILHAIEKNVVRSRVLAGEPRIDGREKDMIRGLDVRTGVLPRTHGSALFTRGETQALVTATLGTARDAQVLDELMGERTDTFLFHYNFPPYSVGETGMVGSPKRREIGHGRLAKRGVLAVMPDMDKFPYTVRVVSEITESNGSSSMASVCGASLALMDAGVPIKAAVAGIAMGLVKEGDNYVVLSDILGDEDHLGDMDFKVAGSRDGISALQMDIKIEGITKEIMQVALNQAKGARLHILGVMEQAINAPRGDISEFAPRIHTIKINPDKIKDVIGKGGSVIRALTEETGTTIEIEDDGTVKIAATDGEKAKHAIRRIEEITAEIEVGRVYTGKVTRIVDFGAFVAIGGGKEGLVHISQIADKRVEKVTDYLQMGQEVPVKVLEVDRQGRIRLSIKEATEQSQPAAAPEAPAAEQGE

For data set [3], the target named is T3, PNPase ΔKHS1 (Escherichia coli) (UniProt P05055).
T3 sequence (looked up, limits assumed): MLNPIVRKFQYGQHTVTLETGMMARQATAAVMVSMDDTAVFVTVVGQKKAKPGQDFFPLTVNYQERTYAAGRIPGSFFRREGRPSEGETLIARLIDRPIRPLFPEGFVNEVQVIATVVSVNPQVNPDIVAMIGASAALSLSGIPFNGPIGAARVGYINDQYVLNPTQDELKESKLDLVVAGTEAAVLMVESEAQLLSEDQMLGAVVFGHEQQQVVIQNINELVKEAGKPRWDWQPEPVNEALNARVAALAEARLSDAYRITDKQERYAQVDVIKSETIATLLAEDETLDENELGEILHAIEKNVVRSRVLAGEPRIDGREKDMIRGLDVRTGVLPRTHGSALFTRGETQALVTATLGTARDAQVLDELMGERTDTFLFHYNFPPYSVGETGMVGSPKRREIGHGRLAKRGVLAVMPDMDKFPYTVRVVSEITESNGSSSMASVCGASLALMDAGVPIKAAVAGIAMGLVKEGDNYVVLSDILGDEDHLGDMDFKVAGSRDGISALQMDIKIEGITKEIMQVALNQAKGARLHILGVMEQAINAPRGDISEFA

The target in data set [4] is T4, PNPase ΔKH del603-615 (Escherichia coli) (UniProt P05055).
T4 sequence (looked up, limits assumed): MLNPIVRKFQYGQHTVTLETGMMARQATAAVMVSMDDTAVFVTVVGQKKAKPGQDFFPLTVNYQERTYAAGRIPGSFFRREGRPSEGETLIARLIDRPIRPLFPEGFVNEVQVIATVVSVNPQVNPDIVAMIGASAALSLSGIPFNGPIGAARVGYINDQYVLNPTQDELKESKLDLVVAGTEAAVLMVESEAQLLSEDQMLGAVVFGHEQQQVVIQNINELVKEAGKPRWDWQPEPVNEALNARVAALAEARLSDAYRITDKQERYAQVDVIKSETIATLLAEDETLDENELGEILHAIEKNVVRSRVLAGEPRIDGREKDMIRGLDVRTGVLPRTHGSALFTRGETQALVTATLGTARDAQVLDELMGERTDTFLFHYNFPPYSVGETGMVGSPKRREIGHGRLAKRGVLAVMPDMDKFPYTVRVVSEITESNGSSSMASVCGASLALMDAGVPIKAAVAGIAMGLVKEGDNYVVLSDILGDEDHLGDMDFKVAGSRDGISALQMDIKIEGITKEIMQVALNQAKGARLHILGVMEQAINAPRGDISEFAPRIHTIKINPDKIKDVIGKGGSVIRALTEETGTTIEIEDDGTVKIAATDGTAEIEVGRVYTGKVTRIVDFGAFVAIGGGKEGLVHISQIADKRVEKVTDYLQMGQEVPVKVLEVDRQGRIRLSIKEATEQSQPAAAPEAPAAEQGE

Where [5] appears, read: 2 mM MnCl2, seemed improved vs no cation, single-stranded DNA.
[6] abbreviates: no divalent cation, single-stranded DNA.
The mark [7] stands for this setting: 2 mM MgCl2, reduced vs no cation.
[8] abbreviates: 2 mM MnCl2, reduced vs no cation.

For at least one entry, the source does not settle the construct or the ends of the probe. The comparison behind a weaker result is the experiment's own reference, which may not be listed here. For part of these data: At least one verdict was read from the data and is not stated in words by the source. Where a protein sequence is shown, tags need not be part of it.

With ACTGGACAAATACTCCGACG [DNA02], the binding result in data set [1] (setting [5]) is listed as “binds more weakly”; in data set [1] (setting [6]) it was “binds more weakly”; in data set [2] (2 mM MgCl2, not reduced by cation, single-stranded DNA), “binds”; in data set [2] (2 mM MnCl2, not reduced by cation, single-stranded DNA), “binds”; in data set [3] (setting [5]), “binds more weakly”; in data set [3] (setting [6]), “binds more weakly”. Also, the binding result in data set [4] (only mildly affected, single-stranded DNA) is recorded as “binds more weakly”.

Consider ACUGGACAAAUACUCCGAGG [RNA01], for which the binding result in data set [1] (no divalent cation) is reported as “binds more weakly”; in data set [2] (setting [7]), “binds more weakly”; in data set [2] (setting [8]), “binds more weakly”; in data set [2] (no divalent cation), “binds”; in data set [3] (setting [7]), “binds more weakly”; in data set [3] (setting [8]) it was “binds more weakly”. For the same sequence, the binding result is given as “binds more weakly” in data set [3] (no divalent cation) and “binds more weakly” in data set [4] (no divalent cation, milder effect).
